Laboratory results as given in paper PMC5660092.
Results are given in words; binding and its absence hold for the method and conditions named. Binding seen in cells or lysates may run through a third protein. Binding calls can cover weak binding; strength is not graded here. Where a sequence is shown, tags or fusion partners need not be part of it.

Target: His-CaMKII-WT
Assay: co-IP; HEK293T (Fig. 7a) or HEK293 (Fig. 7d) cells co-transfected with His-CaMKII and Id-1 constructs; 6 uM ionomycin or 10 uM KN-93 for 24 h in Fig. 7a; His-tagged proteins precipitated with anti-His, western blot

- binding: binds
B1: Myc-Id-1 FL (full-length) (protein, UniProt P41134 1-155)
chain: MKVASGSTATAAAGPSCALKAGKTASGAGEVVRCLSEQSVAISRCAGGAGARLPALLDEQQVNVLLYDMNGCYSRLKELVPTLPQNRKVSKVEILQHVIDYIRDLQLELNSESEVGTPGGRGLPVRAPLSTLNGEISALTAEAACVPADDRILCR
